{"source": "PubChem BioAssay AID504774 (Drosophila RNAi Screening Center, 2011)", "test": "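Genes required for cells to withstand methyl methanesulphonate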 (primary screen)", "cells": "Drosophila Kc167 cells", "reagents": "long dsRNA against Drosophila genes, about 0.25 µg dsRNA per well", "duration": "about 6 days: 3 days knock-down, then 3 days with or without MMS", "challenge": "methyl methanesulphonate 0.004% (w/v) for 3 days after knock-down", "detection": "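Viability in wells given MMS, read as ATP luminescence, normalised by quantiles plate by plate and averaged across replicates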", "reading the numbers": "mean viability with MMS: higher = more surviving cells after MMS", "note": "The deposit covers about 23,000 reagents; below is a random part of those with a known target gene and a result. 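Values are quantile-normalised luminescence on an arbitrary scale; higher means more cells surviving MMS.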 Not all columns of the deposit are shown."}
{"target": "Seipin (GeneID 31245)", "dsRNA": "DRSC18654", "mean viability with MMS": 3.63e6}
{"target": "Ssadh (GeneID 43092)", "dsRNA": "DRSC15621", "mean viability with MMS": 3.63e6}
{"target": "Xe7 (GeneID 40699)", "dsRNA": "DRSC12307", "mean viability with MMS": 3.85e6}
{"target": "spi (GeneID 35253)", "dsRNA": "DRSC03618", "mean viability with MMS": 3.50e6}
{"target": "CG8568 (GeneID 32728)", "dsRNA": "DRSC20113", "mean viability with MMS": 3.75e6}
{"target": "Oda (GeneID 36307)", "dsRNA": "DRSC07626", "mean viability with MMS": 3.46e6}
{"target": "Drice (GeneID 43514)", "dsRNA": "DRSC16715", "mean viability with MMS": 3.71e6}
{"target": "CG32523 (GeneID 318071)", "dsRNA": "DRSC20510", "mean viability with MMS": 3.57e6}
{"target": "Jon74E (GeneID 39959)", "dsRNA": "DRSC10617", "mean viability with MMS": 3.63e6}
{"target": "Delta (GeneID 42313)", "dsRNA": "DRSC16648", "mean viability with MMS": 3.75e6}
{"target": "CG32281 (GeneID 317953)", "dsRNA": "DRSC08236", "mean viability with MMS": 3.57e6}
{"target": "CG6231 (GeneID 42339)", "dsRNA": "DRSC15997", "mean viability with MMS": 3.48e6}
{"target": "Cyp49a1 (GeneID 36105)", "dsRNA": "DRSC06737", "mean viability with MMS": 3.62e6}
{"target": "Cyp49a1 (GeneID 36105)", "dsRNA": "DRSC07367", "mean viability with MMS": 3.64e6}
{"target": "Tbh (GeneID 31718)", "dsRNA": "DRSC18723", "mean viability with MMS": 3.59e6}
{"target": "ND4 (retired record) (GeneID 192476)", "dsRNA": "DRSC21269", "mean viability with MMS": 3.51e6}
{"target": "Ca-alpha1T (GeneID 31550)", "dsRNA": "DRSC17842", "mean viability with MMS": 3.41e6}
{"target": "Ca-alpha1T (GeneID 31550)", "dsRNA": "DRSC18103", "mean viability with MMS": 3.51e6}
{"target": "Ca-alpha1T (GeneID 31550)", "dsRNA": "DRSC18356", "mean viability with MMS": 3.40e6}
{"target": "Ca-alpha1T (GeneID 31550)", "dsRNA": "DRSC18357", "mean viability with MMS": 3.45e6}
{"target": "Ca-alpha1T (GeneID 31550)", "dsRNA": "DRSC21430", "mean viability with MMS": 3.45e6}
{"target": "CG5418 (GeneID 34663)", "dsRNA": "DRSC02857", "mean viability with MMS": 3.59e6}
{"target": "Rrp6 (GeneID 41798)", "dsRNA": "DRSC16223", "mean viability with MMS": 3.19e6}
{"target": "Acbp4 (GeneID 38781)", "dsRNA": "DRSC11023", "mean viability with MMS": 3.51e6}

Records above whose gene name begins with S or s (3):
{"target": "Seipin (GeneID 31245)", "dsRNA": "DRSC18654", "mean viability with MMS": 3.63e6}
{"target": "Ssadh (GeneID 43092)", "dsRNA": "DRSC15621", "mean viability with MMS": 3.63e6}
{"target": "spi (GeneID 35253)", "dsRNA": "DRSC03618", "mean viability with MMS": 3.50e6}
